Test results: paper PMC9367985
Results are given in words; binding and its absence hold for the method and conditions named. In cells and extracts the contact can be indirect. Some results given as binding are weak or reduced against the parent protein; the word gives no strength.

Sequences of proteins named here, by UniProt entry; tags and fusion partners are left off.
UniProt Q96EP0: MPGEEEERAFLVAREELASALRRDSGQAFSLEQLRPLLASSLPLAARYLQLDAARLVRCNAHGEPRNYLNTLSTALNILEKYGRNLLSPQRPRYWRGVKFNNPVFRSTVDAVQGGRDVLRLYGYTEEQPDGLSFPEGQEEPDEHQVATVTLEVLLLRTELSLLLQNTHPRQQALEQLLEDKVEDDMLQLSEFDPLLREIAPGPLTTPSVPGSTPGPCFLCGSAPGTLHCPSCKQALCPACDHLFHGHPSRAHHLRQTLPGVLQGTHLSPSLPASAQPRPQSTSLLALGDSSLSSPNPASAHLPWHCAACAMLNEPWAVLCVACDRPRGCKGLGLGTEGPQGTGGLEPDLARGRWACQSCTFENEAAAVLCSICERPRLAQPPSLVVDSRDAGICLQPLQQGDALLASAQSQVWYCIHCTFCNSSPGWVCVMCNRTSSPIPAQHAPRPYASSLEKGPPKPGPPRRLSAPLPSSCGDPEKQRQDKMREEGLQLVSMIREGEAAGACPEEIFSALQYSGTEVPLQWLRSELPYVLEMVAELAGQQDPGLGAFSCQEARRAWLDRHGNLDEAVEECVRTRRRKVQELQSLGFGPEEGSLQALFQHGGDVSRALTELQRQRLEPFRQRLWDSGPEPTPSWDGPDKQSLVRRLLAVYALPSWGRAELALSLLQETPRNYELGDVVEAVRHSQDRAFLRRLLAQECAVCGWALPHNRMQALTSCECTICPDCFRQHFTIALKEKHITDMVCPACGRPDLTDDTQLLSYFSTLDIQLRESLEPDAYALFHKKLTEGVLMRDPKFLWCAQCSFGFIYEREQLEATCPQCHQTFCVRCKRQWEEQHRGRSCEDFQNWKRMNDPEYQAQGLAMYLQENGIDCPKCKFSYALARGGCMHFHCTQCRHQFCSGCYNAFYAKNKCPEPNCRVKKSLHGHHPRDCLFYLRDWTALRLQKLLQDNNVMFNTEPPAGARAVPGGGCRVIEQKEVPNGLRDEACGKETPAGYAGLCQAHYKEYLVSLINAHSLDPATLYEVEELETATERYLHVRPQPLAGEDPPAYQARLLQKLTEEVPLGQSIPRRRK

Target: A315T^247-414-GFP (C-terminally GFP-tagged truncated TDP-43, residues 247-414, with the ALS-associated A315T mutation) (human) (UniProt Q13148)
Experiment: co-IP; HEK293T cells transfected with LUBAC subunits and GFP or A315T^247-414-GFP; lysis in 50 mM Tris-HCl pH 7.5, 150 mM NaCl, 1% Triton X-100; anti-GFP immunoprecipitates on Protein G agarose at 4 °C; immunoblotting

binding | Substance
no binding | HOIP expressed alone (FLAG-tagged LUBAC subunit) (from UniProt Q96EP0 1-1072)
binds | LUBAC (linear ubiquitin chain assembly complex: HOIP, HOIL-1L and SHARPIN co-expressed) (from UniProt Q96EP0 1-1072; Q9BYM8-1 1-510; Q9H0F6 1-387)
no binding | HOIL-1L expressed alone (FLAG-tagged LUBAC subunit) (from UniProt Q9BYM8-1 1-510)
